Laboratory results: article PMC2614481
Results are given in words; binding and its absence hold for the method and conditions named. In cells and extracts the contact can be indirect. A yes stands for co-enrichment or nearness to the bait. Other partners may have been found.

Amino acid sequences for entries named in this document (tags omitted).
UniProt Q9C0X6: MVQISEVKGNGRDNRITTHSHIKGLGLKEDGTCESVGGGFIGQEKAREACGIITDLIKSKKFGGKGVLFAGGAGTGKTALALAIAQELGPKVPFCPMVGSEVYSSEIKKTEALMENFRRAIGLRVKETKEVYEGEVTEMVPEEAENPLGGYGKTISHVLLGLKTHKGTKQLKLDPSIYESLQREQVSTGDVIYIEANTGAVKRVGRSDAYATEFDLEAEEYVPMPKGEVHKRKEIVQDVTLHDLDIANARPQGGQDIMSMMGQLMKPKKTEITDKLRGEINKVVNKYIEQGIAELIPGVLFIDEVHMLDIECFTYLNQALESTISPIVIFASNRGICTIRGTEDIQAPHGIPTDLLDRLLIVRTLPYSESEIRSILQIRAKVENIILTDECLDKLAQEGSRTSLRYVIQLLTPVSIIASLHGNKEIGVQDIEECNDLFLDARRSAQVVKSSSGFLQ
UniProt Q9HFE8: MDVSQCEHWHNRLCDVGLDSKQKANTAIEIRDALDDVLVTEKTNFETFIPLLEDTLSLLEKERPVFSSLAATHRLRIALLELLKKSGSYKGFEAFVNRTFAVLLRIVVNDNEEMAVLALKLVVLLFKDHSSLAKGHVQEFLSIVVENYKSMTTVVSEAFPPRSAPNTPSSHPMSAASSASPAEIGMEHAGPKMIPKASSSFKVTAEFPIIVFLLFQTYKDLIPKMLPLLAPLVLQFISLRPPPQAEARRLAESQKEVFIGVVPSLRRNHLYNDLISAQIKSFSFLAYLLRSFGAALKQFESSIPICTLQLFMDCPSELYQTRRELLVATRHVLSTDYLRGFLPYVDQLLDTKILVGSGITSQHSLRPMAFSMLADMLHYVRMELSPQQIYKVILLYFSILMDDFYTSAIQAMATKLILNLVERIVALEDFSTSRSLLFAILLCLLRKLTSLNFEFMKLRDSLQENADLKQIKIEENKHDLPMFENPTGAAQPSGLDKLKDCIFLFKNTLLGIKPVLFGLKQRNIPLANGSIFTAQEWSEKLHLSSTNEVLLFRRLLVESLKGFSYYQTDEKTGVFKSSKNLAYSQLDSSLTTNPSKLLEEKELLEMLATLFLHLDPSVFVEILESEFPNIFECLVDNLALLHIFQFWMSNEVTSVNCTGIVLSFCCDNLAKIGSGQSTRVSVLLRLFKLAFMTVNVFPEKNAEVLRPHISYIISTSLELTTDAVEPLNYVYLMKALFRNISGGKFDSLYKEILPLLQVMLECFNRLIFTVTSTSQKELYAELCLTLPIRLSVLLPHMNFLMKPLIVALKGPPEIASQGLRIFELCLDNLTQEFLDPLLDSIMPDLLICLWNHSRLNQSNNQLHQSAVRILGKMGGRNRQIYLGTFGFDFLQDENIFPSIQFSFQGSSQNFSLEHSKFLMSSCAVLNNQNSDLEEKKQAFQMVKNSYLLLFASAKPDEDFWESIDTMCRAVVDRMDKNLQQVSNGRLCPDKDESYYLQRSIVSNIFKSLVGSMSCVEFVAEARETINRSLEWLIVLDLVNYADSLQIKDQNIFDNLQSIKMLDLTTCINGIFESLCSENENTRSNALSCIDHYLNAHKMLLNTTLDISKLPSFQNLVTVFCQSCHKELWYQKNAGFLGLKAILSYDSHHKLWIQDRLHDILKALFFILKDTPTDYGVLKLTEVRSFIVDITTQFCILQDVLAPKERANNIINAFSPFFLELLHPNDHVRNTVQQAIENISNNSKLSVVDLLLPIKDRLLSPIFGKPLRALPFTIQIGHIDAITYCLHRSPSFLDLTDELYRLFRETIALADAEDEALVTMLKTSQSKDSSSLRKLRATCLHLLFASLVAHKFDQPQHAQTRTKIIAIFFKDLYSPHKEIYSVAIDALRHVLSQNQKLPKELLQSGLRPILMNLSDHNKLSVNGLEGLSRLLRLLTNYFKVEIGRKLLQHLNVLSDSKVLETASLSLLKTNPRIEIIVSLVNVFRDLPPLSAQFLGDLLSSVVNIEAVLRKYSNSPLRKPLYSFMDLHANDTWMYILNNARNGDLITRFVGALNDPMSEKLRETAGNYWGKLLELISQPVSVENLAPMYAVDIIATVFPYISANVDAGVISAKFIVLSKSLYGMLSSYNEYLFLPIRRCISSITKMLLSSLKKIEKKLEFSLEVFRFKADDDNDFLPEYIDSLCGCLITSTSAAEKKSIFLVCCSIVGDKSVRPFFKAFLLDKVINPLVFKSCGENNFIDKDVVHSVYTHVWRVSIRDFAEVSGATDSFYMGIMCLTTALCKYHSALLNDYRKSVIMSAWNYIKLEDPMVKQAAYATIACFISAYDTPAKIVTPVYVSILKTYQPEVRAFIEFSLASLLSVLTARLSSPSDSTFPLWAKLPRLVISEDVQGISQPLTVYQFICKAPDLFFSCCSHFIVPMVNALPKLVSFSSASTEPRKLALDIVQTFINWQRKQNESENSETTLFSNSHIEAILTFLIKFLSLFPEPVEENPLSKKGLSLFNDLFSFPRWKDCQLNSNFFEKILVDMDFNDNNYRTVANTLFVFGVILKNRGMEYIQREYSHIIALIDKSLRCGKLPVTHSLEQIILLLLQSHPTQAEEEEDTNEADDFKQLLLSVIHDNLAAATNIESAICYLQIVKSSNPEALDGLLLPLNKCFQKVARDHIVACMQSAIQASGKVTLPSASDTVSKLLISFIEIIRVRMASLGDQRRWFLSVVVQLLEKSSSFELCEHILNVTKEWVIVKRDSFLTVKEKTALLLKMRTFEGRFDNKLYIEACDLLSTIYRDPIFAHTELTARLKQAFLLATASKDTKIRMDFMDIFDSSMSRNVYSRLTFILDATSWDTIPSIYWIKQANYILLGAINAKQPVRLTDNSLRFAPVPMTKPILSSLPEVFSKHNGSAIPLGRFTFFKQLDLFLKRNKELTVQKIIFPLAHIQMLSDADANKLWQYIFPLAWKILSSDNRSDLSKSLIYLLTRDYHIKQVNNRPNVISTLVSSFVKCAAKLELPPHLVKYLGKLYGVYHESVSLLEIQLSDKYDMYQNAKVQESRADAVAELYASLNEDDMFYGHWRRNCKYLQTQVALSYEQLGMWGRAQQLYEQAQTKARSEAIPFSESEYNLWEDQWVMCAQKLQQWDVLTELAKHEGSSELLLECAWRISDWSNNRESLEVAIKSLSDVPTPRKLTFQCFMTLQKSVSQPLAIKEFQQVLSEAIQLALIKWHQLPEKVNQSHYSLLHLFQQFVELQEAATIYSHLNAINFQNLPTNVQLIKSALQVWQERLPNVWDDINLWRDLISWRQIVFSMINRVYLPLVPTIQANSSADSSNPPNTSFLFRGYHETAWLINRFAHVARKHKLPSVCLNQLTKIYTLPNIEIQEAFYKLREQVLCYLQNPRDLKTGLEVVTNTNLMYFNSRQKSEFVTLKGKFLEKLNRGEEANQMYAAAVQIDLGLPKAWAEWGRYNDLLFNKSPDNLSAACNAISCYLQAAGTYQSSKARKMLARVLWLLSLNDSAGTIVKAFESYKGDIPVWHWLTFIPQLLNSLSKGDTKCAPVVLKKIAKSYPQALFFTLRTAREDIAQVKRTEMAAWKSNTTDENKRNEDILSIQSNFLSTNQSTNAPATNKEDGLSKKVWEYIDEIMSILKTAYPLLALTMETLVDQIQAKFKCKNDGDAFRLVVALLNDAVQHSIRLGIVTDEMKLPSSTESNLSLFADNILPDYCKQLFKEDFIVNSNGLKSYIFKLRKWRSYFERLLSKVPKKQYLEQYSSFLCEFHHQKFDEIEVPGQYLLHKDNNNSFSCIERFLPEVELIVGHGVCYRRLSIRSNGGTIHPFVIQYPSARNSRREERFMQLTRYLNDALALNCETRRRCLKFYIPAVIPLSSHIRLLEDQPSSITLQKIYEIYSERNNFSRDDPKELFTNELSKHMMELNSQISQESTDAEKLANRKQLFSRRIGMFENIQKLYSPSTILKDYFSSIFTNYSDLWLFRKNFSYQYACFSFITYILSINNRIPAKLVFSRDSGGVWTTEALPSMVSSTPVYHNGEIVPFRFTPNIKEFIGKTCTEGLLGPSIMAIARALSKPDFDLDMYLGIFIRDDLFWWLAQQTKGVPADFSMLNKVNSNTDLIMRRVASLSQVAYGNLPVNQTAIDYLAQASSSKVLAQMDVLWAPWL

Tests used:
Experiment in all cases: affinity purification with mass spectrometry; TAP of baits TAP-tagged at their genes from S. pombe extracts; eluates on 6-18% gels, Coomassie, bands and slices identified by MALDI peptide mapping and LC-MS/MS; common background removed, A-index cut-off 1.75
[1] = biological target: T1, IES6 (S. pombe) (S. pombe) (UniProt Q9UTE8)
T1 sequence: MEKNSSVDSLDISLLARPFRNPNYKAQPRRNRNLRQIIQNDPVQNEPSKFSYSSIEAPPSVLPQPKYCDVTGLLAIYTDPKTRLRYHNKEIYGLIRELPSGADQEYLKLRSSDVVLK

[2] = biological target: RVB1 (S. pombe) (S. pombe) (UniProt Q9C0X6)
[3] = biological target: T2, SWC2 (S. pombe) (S. pombe) (UniProt Q9P790)
T2 sequence: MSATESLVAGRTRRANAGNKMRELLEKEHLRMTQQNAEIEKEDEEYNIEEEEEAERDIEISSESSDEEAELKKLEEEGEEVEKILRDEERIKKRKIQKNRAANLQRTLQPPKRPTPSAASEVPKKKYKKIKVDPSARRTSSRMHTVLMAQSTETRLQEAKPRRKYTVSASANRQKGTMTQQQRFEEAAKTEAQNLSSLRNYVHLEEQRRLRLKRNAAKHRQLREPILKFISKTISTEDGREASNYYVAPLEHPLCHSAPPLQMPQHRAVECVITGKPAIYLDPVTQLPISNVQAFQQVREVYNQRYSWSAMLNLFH

[4] = biological target: T3, SWC4 (S. pombe) (S. pombe) (UniProt O14308)
T3 sequence: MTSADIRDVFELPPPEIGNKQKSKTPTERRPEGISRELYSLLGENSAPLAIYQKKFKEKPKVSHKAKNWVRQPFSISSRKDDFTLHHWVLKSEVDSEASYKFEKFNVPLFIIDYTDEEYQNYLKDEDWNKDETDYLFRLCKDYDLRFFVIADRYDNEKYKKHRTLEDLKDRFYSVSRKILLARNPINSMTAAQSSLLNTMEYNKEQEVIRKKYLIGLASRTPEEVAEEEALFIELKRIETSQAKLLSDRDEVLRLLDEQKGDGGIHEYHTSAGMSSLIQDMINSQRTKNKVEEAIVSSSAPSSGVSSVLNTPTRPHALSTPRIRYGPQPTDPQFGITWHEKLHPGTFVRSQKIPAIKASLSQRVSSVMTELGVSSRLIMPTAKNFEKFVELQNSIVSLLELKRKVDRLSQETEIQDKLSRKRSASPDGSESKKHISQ

[5] = biological target: T4, Sp_Alp13p (S. pombe) (UniProt O13953)
T4 sequence: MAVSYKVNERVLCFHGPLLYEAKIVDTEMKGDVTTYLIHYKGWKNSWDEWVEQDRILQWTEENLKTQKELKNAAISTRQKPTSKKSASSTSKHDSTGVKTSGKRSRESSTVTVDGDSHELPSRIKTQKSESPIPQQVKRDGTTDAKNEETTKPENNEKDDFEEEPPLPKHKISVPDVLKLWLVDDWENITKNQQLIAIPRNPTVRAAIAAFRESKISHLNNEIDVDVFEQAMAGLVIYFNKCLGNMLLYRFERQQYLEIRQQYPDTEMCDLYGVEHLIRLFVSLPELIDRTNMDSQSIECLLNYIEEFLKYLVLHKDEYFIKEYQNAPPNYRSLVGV

[6] = biological target: T5, YAF9 (S. pombe) (S. pombe) (UniProt Q10319)
T5 sequence: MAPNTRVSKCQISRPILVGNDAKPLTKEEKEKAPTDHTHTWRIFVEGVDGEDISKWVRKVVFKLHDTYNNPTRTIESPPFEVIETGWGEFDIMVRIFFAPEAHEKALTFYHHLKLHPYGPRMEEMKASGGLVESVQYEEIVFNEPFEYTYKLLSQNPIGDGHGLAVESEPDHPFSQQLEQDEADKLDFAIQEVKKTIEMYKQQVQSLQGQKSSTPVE

[7] = biological target: Tra1 (S. pombe) (S. pombe) (UniProt Q9HFE8)

| Binder | binding [1] | binding [2] | binding [3] | binding [4] | binding [5] | binding [6] | binding [7] |
| --- | --- | --- | --- | --- | --- | --- | --- |
| ALP5 (S. pombe) (protein, UniProt Q9P7X7 1-433) MTSAFYGGDEVSAIVIDPGSKWTRIGFSGEDIPKCVLPSYCGEFSDGRRLFGEEYIYKSNPGMEIKNAIRNGWVENWDVTVDLWRYGLEQQLKTNPLEHPILITEPFDNPPENRVKTLETMFESLRCPATYLAKQETCAAFASGKGTACLVDIGAERSSVSAIYDGFVLQKGYQVQHFSGNAINDILAQTLRDKNFEVMPKYLVKSKNPVEIGQPANCELRPRDTTDSYHQFQVQRVYDEWKEECALISDVPFSSETTIAESEFEFPDGSRMMFGAERYQIPEHLFVPGSDEEMNEEPSKPIEQTENNEVSQQDSSVTNTSSRILGIPQLFQNCISECDVDIRASLLNNVIVCGGTSLMQGFSLRLQNELSKLYPGSRLKIHASGHVVERSYASWLGGSILSSLGTFHQLWISRQEYEEHGSDRLALIEKRCK | binds | binds | binds | binds | binds | binds |  |
| TTI1 (S. pombe) (protein, UniProt O94600 1-1098) MSHIQSIFAQIRDPFRKLSFYSLPLSSETSSVDSNGLKNSLKDAYFGLEKALTNTDADLPLNLCDYIFFPIVPVLKSWYRVPSTGVEYAIQCVNLLYKHGWREAHNEMLTMQLLLMLLNIADGWKSPSETVEQDFRVREITFETLENVITDFKPNFHDKRQYLLFARALSSALDIIPNKNSSRRLQFASLCCVQKLICPKQYRLPTEFLTTFLPGIVSGLTKGLAPNGTCQYFKNVCISLNILGDTVVKAISDDNTKDLPDEKDASSNSHFFGPTKRTKSWKRATCQQLSNAVKAILHLRSSQNLHVQDALFDFCFILFRDCLDSLKDCRIHLLESMLKLINKKENPKLRDYGMNKLVSLIESFNNITMESVLTECLNDWSTTWSSVSTFASEDNKLEELNRLKSLLSISSHLPKTLQLMEPLLDGILSQLVPKSSGIDSNSQKLLTSSTSNEYIHGEFFGGNEMERTTQEIVTSFAKAPNVKYVMQSLLSKATSATNENSVRAFWAFMVLLKSDVETVDSLEMYIDSLEQYSFEVLQQLSQLNVFTKASLEDKQKKEKYNLLCVRSCIAIDSISWISSLQGVKFRSKLMAYFYPLLEHLAFASPYVSSFAEACIQAIATNCNYSTPAELLRENIDYVVNSVALKLNTLDVSPQLPIVMAYVIKNDDGGCIRYIGDVVDAIFGILDAYHGYARLTEGLLGILYAIIKQESINGEEKKLIVGVEEDAMNEDKNKPCKKIREFVQLLLENPNYPLPKDDHELEDMIHDEQQETKSGHEQFREHAMKEKEKKGKENENMGETTVDHENINSNVMDEQGEKQKDDVVDMVRKITEKAQLFLSHEQITIRVEMLKLLSYGSNVLAKEPNTFYPAINTFWPLVVIQLDTDNELLVECALETIYQVCALADDFMTSRIRQDLLPRLETLCQRWHLFNVARTYSSEHRLQRAMLKVTSACVANKLSIVVYLKLMGITAPIIRAITHMSQKYAGDESLVEETWNAFSKQNPDAVYYEREVRGSQMIDTFSTELLIPGKQRVQRTYRRTHEVLEPVGAKTSETVFNDLLGQQGSGKTETQEEPLPSLDNLLHLNQPKKGAKKPLISII |  |  |  |  |  |  | binds |
| TEL2 (S. pombe) (protein, UniProt Q9P3W5 1-868) MKSFASELSKPIQKPRLKEILKELQHIGVPSPCNLRLYHELISVIVPTFWNGKINSEIDFLLAKCFSTLLGLKLLCVRLDNFVQEANLQNIHLVTVYLELLEKAFECIDLDDNCKLIWESTVLSDHQKQSLWTEFIFFLGNFKITNSMSAAMLTFKVYDDSKRLKASSMADYIGVLSSKLACIISKPAVKTPEIYSKLFHYLLHSSNLKAFINPLIPLTQKFCVQLQKLFADLTVSDQMLFLNQLLLEHNTKYPTNFSYSTARDDRITGSLATLLRLNFSSTHFLRLIEFYWGVPTNLIIKRVEVVCSSISYKESDKKELEKTVDSLFNIWSNAQFLRSYTLLAQESLTIYLLLFIPKLEAKYLNNLSKSLMFSNAISCRLDSLDDDIRMHGMIMAEVISTYSGVSLSNPLAFDVPIMKTTKAKVLKSLSSLKDEFLPIEILNDESVIAETSIEKEETNVTHLEKPVISKNDDLIRGDDLEPYDFPDIDSEDTDDDPTVSRSKTHSPVYVQDLCKMLKDTESFEKQRVALENASKLIKRKSAFGTELRDHADELLQTLISLQNRFDLMNFDEMQMTAIVELLLTCLDICGPVICTNLFVSDYSMRQKILILSCISLAASKFNDDDNERLFPSQLLPGNLHDQFYSPTIEKISDELERKLVFPVMSECKDYAEGPKFLQTRYISKQSEIESKKPLPKANRLSLKVDKSLFLLLTSGYMLASRKTAFIEPLFLVYYLKTLGILFFETFTSKIEGANRMLREYVDVLNEVCRLRSDTPEVNEGLLFSFLAILEISSGRTLANEFGKHLLFFEAYTKFLFESPDQGEKVKSLSAAVLILFENKLSEFRTLALEKLLDDSAPLVPERFGLAGL |  |  |  |  |  |  | binds |
